Patent US20150337356A1 (FRIEDRICH ALEXANDER UNIVERSITAET ERLANGEN NUERNBERG, published 2015)

By UniProt entry, the sequences of proteins in these tests, tags left out. Residues count along the entry.
UniProt P78536, 215-824 limits assumed: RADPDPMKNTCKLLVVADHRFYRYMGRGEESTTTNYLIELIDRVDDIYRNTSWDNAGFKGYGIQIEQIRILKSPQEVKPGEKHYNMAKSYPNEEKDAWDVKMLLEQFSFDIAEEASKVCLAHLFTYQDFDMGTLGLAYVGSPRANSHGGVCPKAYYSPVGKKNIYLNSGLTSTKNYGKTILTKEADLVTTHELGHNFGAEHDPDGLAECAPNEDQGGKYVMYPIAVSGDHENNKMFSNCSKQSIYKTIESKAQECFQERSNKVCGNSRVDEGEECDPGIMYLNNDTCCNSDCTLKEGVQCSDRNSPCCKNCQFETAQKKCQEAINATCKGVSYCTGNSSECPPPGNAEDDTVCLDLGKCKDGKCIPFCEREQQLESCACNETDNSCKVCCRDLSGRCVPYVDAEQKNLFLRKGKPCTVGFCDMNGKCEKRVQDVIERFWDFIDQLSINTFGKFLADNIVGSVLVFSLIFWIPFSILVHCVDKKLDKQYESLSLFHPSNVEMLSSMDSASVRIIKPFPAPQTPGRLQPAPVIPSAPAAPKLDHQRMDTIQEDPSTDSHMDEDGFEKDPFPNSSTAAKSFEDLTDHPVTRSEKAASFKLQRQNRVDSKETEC

Target: TNFα converting enzyme (TACE/ADAM17) (UniProt P78536 215-824, limits assumed)
Assay: co-immunoprecipitation, transfected 293T cells (FIG. 1F)
Description: Transfections into 293T cells and protein assays. Transient transfections into 293T cells as well as immunoprecipitations and immunoblots were performed as described previously (Baur et al., 1997; Witte et al., 2004; Wolf et al., 2008). In general 20 μg of cellular protein lysate and 10 μg of EV lysate were loaded per lane. The latter corresponded to the secretion from 2-4 mio 293T cells within 48 h. Endogenous TACE activity was measured using SensoLyte®520 TACE (α-Secretase) Activity Assay Kit from AnaSpec, according to the manufacturer's procedures. Cell lysates were generated from 293T cells 24 h after tranfection of Nef/mNAKC. Aliquots of transfected cells were treated with TAPI for 12 h prior to cell lysis.
To explore the significance of paxillin in this process, we expressed a paxillin mutant with a deletion of the LD4 protein domain (FIG. 3A) (Tumbarello et al., 2002). Remarkably, in cells transfected with this mutant no paxillin-TACE coimmunoprecipitation or proteolytic activation of TACE by the Nef/mNAKC complex was observed (FIG. 1F, black double arrows; controls Figure S2F). Furthermore, the LD4-mutant completely abrogated secretion of TACE via EV (FIG. 1F, red double arrow). […] Thus paxillin seemed a key factor in activation and secretion of TACE.

B1: paxillin LD4 deletion mutant (PaxΔLD4) (other, UniProt P49023-2 1-557, looked up)
chain: MDDLDALLADLESTTSHISKRPVFLSEETPYSYPTGNHTYQEIAVPPPVPPPPSSEALNGTILDPLDQWQPSSSRFIHQQPQSSSPVYGSSAKTSSVSNPQDSVGSPCSRVGEEEHVYSFPNKQKSAEPSPTVMSTSLGSNLSELDRLLLELNAVQHNPPGFPADEANSSPPLPGALSPLYGVPETNSPLGGKAGPLTKEKPKRNGGRGLEDVRPSVESLLDELESSVPSPVPAITVNQGEMSSPQRVTSTQQQTRISASSAKTGSSSPPGGPPKPGSQLDSMLGSLQSDLNKLGVATVAKGVCGACKKPIAGQVVTAMGKTWHPEHFVCTHCQEEIGSRNFFERDGQPYCEKDYHNLFSPRCYYCNGPILDKVVTALDRTWHPEHFFCAQCGAFFGPEGFHEKDGKAYCRKDYFDMFAPKCGGCARAILENYISALNTLWHPECFVCRECFTPFVNGSFFEHDGQPYCEVHYHERRGSLCSGCQKPITGRCITAMAKKFHPEHFVCAFCLKQLNKGTFKEQNDKPYCQNCFLKLFC
notes: also called paxillinΔLD4; LD4-mutant
B1: no binding.
